Laboratory results published in patent US20180325981A1 (published 2018).
These are yes or no findings as the source states them, for the method shown. Some binding calls cover weakened binding; strength is not graded here.

T1: purified recombinant ADIPOR1 (A88) (UniProt Q96A54)
T1 sequence: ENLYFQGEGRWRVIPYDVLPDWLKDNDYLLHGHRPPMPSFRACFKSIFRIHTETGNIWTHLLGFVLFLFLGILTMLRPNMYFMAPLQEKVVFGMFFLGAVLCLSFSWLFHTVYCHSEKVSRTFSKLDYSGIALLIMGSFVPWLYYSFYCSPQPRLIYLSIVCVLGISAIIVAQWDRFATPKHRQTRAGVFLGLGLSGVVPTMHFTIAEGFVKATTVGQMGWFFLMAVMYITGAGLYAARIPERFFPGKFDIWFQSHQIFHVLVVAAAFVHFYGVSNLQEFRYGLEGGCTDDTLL


Assays:
[1] = target: T1, purified recombinant ADIPOR1 (A88); test: SPR; recombinant ADIPOR1 amine-coupled to a CM5 chip, peptide injected at 0.5 to 50 uM
[2] = target: T1, purified recombinant ADIPOR1 (A88); test: SPR; recombinant ADIPOR1 amine-coupled to a CM5 chip, peptide injected at 1.56 to 50 uM
[3] = target: T1, purified recombinant ADIPOR1 (A88); test: SPR, immobilised ADIPOR1
[4] = target: T1, purified recombinant ADIPOR1 (A88); test: SPR; recombinant ADIPOR1 amine-coupled to a CM5 chip, peptide injected at 2.5 to 100 uM
[5] = target: T1, purified recombinant ADIPOR1 (A88); test: SPR, ADIPOR1 amine-coupled to CM5 chip, peptide injected

| binding [1] | binding [2] | binding [3] | binding [4] | binding [5] | Binder |
| --- | --- | --- | --- | --- | --- |
| binds | – | – | – | – | NIPGLWYFAY (3rd round synthetic peptide; also called peptide 3-3) [3-3] |
| binds | – | – | – | – | NIPGLFYFAY (3rd round synthetic peptide; also called peptide 3-4) [3-4] |
| – | binds | binds | – | – | WYFAYHPNIPGLWYF (Synthetic 4th round agonist peptide) [peptide 4-3] |
| – | binds | binds | – | – | FYFAYHPNIPGLFYF (Synthetic 4th round agonist peptide) [peptide 4-4] |
| – | – | binds | binds | binds | YYFAYHPNIPGLYYF (Synthetic 3rd round agonist peptide designed for the adiponectin receptor) [peptide 3-1] |
